Test results reported in article PMC9166773, “Latrophilin-2 is a novel receptor of LRG1 that rescues vascular and neurological abnormalities and restores diabetic erectile function” (Experimental & Molecular Medicine, 2022).

Target: T1, Latrophilin-2 (LPHN2), endogenous (human (endogenous in HEK293T and HUVEC)) (UniProt O95490)
T1 sequence: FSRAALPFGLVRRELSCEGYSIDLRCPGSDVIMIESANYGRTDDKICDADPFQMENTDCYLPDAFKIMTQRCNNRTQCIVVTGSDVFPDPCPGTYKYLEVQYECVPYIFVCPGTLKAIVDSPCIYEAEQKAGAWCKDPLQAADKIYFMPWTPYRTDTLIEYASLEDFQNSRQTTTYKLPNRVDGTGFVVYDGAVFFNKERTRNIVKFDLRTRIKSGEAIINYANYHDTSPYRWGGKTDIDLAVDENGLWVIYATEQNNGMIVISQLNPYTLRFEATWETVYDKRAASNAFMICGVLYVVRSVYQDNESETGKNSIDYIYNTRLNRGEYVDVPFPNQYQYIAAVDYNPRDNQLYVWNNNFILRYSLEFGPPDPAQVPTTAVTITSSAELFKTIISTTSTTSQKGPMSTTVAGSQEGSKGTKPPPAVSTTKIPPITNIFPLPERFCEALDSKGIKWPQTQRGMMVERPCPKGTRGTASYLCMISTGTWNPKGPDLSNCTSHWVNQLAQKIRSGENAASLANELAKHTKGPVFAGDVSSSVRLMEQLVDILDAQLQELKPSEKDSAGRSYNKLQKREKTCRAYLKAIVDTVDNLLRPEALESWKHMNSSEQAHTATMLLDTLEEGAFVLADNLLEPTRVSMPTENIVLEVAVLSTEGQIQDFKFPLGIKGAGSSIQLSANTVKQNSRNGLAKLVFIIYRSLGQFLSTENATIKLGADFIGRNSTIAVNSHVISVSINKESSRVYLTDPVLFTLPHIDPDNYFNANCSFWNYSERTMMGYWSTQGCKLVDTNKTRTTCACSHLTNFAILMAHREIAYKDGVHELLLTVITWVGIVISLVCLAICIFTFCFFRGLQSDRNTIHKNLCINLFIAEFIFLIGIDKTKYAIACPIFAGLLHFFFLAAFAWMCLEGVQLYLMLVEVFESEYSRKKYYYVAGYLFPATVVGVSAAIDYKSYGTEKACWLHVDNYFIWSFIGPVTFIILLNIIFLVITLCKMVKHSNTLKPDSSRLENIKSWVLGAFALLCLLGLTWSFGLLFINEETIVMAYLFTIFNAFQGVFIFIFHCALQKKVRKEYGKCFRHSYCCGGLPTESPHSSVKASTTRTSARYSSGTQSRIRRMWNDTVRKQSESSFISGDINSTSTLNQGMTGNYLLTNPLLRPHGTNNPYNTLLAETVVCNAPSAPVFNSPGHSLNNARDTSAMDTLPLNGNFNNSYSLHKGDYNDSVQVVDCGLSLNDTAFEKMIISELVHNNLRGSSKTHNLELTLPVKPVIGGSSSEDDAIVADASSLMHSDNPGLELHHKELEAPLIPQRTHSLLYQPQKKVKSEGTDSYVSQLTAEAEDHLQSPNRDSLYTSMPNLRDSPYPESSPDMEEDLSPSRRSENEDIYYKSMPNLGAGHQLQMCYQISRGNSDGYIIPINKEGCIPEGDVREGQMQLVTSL
Test: affinity purification with mass spectrometry; HUVECs serum-starved 6 h, treated with LRG1 (1 ug/ml) for 0, 10, 30, 60 min, lysed in RIPA buffer; IP with anti-LPHN2 antibody, bands cut from SDS-PAGE gel, nano LC-MS/MS; only the binder purified

B1: Leucine-rich alpha-2-glycoprotein 1 (LRG1), recombinant tag-free human LRG1 (ligand, UniProt P02750 36-347, looked up)
chain: VTLSPKDCQVFRSDHGSSISCQPPAEIPGYLPADTVHLAVEFFNLTHLPANLLQGASKLQELHLSSNGLESLSPEFLRPVPQLRVLDLTRNALTGLPPGLFQASATLDTLVLKENQLEVLEVSWLHGLKALGHLDLSGNRLRKLPPGLLANFTLLRTLDLGENQLETLPPDLLRGPLQLERLHLEGNKLQVLGKDLLLPQPDLRYLFLNGNKLARVAAGAFQGLRQLDMLDLSNNSLASVPEGLWASLGQPNWDMRDGFDISGNPWICDQNLSDLYRWLQAQKDKMFSQNDTRCAGPEAVKGQTLLAVAKSQ
notes: human LRG1, residues V36-Q347; In the TriCEPS capture LRG1 was coupled to the TriCEPS reagent; Residues of the thrombin site may remain after cleavage; also called recombinant LRG1; soluble LRG1; not shown: Fc (human IgG), C-terminal, cleaved
binding: binds

No constants are given. Whether binding was seen depends on the method and setting. In cells and extracts the contact can be indirect. Here binding means that the protein was enriched with, or labelled near, the bait; the list need not be complete. Sequences can lack the tags named with a protein.
